The source of these data is patent US12281179 (dated 2025).

This series in a line: general procedure: solution-phase peptide synthesis; EDC×HCl, DIPEA. The conditions noted are these: whole synthesis, HCl salt.

Consider “FNBA-Glu(OtBu)-Lys(Boc)-HSer(Trt)-GlyOtBu”, for which the “crude HPLC purity” value (HPLC) was 90.6%. For the same substance, the crude yield (with assay correction) is listed as 85.5%.
